Results published in patent US11660338B2, “Particles comprising a shell with RNA” (BIONTECH SE, priority 2013, dated 2023).
At least one compound was matched to its structure with a doubt left.

System: Vγ9Vδ2 T cells
Conditions: 7-day co-culture, compared to negative control (no ZA)

Compound: O=P(O)(O)C(O)(Cn1ccnc1)P(=O)(O)O [zoledronic acid]
- frequency (percentage) of Vγ9δ2 T cells regarding all peripheral blood lymphocytes: increase
